The values that follow come from paper doi:10.1101/2025.03.16.643548.

For the assay, the target named is MUC2C-NC (truncated MUC2 C-terminal protein from the VWCN domain to the cysteine-knot) (human). The assay can be described thus: cross-linking.

These are yes or no findings as the source states them, for the method shown. Tags and fused reporters may be left off the sequences shown.

B1: EatA lacking the DUF domain (residues 514 to 616 replaced by eight His residues) (enzyme, UniProt Q84GK0 57-513; Q84GK0 617-1364)
chain: ATVNADISYQTFRDFAENKGAFIVGASNINIYDKNGVLVGVLDKAPMPDFSSATMNTGTLPPGDHTLYSPQYVVTAKHVNGSDIMSFGHIQNNYTVVGENNHNSLDIKIRRLNKIVTEVAPAEISSVGAVNGAYQEGGRFKAFYRLGGGLQYIKDKNGNLTPVYTNGGFLTGGTISALSSYNNGQMITAPTGDIFNPANGPLANYLNKGDSGSPLFAYDSLDKKWVLVGVLSSGSEHGNNWVVTTQDFLHQQPKHDFDKTISYDSEKGSLQWRYNKNSGVGTLSQESVVWDMHGKKGGDLNAGKNLQFTGNNGEIILHDSIDQGAGYLQFFDNYTVTSLTDQTWTGGGIITEKGVNVLWQVNGVNDDNLHKVGEGTLTVNGKGVNNGGLKVGDGTVILNQRPDDNGHKQAFSSINISSGRATVILSDANQVNPDKISWGYRGGTLDLNGNNVNFTRLHHHHHHHHQPYMFHGQLNGYMDVNIHPLSGKDVLTLDGSVNLPEGVITKKSGTLIFQGHPVIHAGMTTSAGQSDWENRQFTMDKLRLDAATFHLSRNAHMQGDISAANGSTVILGSSRVFTDKNDGTGNAVSSVEGSSIATTAGDQSYYSGNVLLENHSSLEVRENFTGGIEAYDSSVSVTSQNAIFDHVGSFVNSSLLLEKGAKLTAQSGIFTNNTMKIKENASLTLTGIPSVGKPGYYSPVTSTTEGIHLGERASLSVKNMGYLSSNITAENSAAIINLGDSNATIGKTDSPLFSTLMRGYNAVLQGNIMGPQSSVNMNNALWHSDRNSELKELKANDSQIELGVRGHFAKLRVKELIASNSVFLVHANNSQADQLNVTDKLQGSNNTILVDFFNKAANGTNVTLITAPKGSDENTFKAGTQQIGFSNITPEIRTENTDTATQWVLTGYQSVADARASKIATDFMDSGYKSFLTEVNNLNKRMGDLRDSQGDAGGWARIMNGTGSGESGYRDNYTHVQIGADRKHELNGIDLFTGALLTYTDNNASSQAFSGKTKSLGGGVYASGLFESGAYFDLIGKYLHHDNRYTLNFASLGERSYTSHSLYAGAEIGYRYHMSENTWVEPQMELVYGSVSGKSFNWKDQGMQLSMKDKDYHPLIGRTGVDVGRAFSGDTWKVTVRAGLGYQFDLLANGETVLQDASGKKHFKGEKDSRMLMNVGTNVEVKDNMRFGLELEKSAFGRYNIDNSINANFRYYF
For B1, the binding result is recorded as “no binding”.
